In patent US20080201790A1, “Method and product for regulating cell responsiveness to external signals” (priority 1993, published 2008):
These are yes or no findings as the source states them, for the method shown. Some entries that bind do so weakly or less than the wild type. For some assays here: Tags and fused reporters may be left off the sequences shown.

Tests used:
[1] = target: T1, MEKK1 (protein encoded by p-MEKK1, transiently expressed in COS cells) (mouse) (UniProt P53349); experiment: two-hybrid system
T1 sequence: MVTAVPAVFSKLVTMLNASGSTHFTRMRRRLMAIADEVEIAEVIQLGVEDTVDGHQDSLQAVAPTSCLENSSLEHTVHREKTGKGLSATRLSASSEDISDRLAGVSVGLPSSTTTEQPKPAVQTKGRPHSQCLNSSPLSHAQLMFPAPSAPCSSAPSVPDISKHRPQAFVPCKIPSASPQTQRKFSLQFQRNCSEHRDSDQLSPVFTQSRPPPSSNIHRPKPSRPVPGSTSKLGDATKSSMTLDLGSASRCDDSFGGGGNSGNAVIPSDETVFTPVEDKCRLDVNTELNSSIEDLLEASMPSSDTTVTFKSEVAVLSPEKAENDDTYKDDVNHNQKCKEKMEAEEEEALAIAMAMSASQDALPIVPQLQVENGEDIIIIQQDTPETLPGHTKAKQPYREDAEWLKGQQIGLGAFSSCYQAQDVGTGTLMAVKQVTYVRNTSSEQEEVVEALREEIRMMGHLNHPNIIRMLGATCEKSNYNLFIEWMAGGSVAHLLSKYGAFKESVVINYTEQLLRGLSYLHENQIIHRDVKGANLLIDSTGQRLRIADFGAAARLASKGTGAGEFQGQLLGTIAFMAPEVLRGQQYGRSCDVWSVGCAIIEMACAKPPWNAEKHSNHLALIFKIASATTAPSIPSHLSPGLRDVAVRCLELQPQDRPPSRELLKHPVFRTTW

[2] = target: T1, MEKK1 (protein encoded by p-MEKK1, transiently expressed in COS cells) (mouse); experiment: GST fusion protein interaction with COS cell-expressed MEKK1

B1: T cell 14-3-3 isoform (two-hybrid system) (protein, UniProt P27348 1-245, looked up)
chain: MEKTELIQKAKLAEQAERYDDMATCMKAVTEQGAELSNEERNLLSVAYKNVVGGRRSAWRVISSIEQKTDTSDKKLQLIKDYREKVESELRSICTTVLELLDKYLIANATNPESKVFYLKMKGDYFRYLAEVACGDDRKQTIDNSQGAYQEAFDISKKEMQPTHPIRLGLALNFSVFYYEILNNPELACTLAKTAFDEAIAELDTLNEDSYKDSTLIMQLLRDNLTLWTSDSAGEECDAAEGAEN
For B1, which binding [1] is on record?
The binding was “binds”.

B2: GST fusion protein of the T cell 14-3-3 isoform (protein, UniProt P27348 1-245, looked up, not shown: a dimerising Fc or GST)
chain: MEKTELIQKAKLAEQAERYDDMATCMKAVTEQGAELSNEERNLLSVAYKNVVGGRRSAWRVISSIEQKTDTSDKKLQLIKDYREKVESELRSICTTVLELLDKYLIANATNPESKVFYLKMKGDYFRYLAEVACGDDRKQTIDNSQGAYQEAFDISKKEMQPTHPIRLGLALNFSVFYYEILNNPELACTLAKTAFDEAIAELDTLNEDSYKDSTLIMQLLRDNLTLWTSDSAGEECDAAEGAEN
How did the binding [2] turn out when B2 was run?
Its binding is “binds”.
